# HELM strings list residues between dots; [ac] is acetyl, [am] amide, other brackets name non-standard units.
# Assay: general procedure: Fmoc solid-phase peptide synthesis; Rink amide MBHA resin; HBTU, DIC or PyBOP (HOBt/DIEA)
# Details: whole synthesis
row,Substance,crude HPLC purity
1,"1,8-NphtG-(KLAKLAK)2-NH2",96%
2,Caf-(KLβ-AKLβ-AK)2-NH2,100%
3,PEPTIDE1{[Caf].K.L.A.K.L.A.K.K.L.A.K.L.A.K.[am]}$$$$V2.0,98%
